## Primary screen of a compound library

The values are deposited in ChEMBL (CHEMBL3988442, “University of Dundee, Small-Polar-MMV Screening Library” (2021)).

A: 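Phenotypic screen: M. tuberculosis growth, glucose 7H9 medium, 3 days; the read-out is not stated. Compounds at 50 µM. Higher reads as more growth inhibition (inferred: compounds with an IC50 in retests scored well above the rest). About 69,000 compounds were tested under these conditions; 1.1% (about 760) showed 50% or more at least once.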
B: 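Growth of Mycobacterium tuberculosis over 4 days (cholesterol / DPPC medium with tyloxapol); the read-out is not stated. Compounds at 50 µM. The record gives no direction; compounds that gave an IC50 in retests scored well above the rest, so higher reads as more growth inhibition. Size under these conditions: about 69,000 compounds, about 370 of them at 50% or above in at least one test.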

The filed quantity is “Percent Effect” (%). How 0% and 100% were set is not recorded. Most values in the screen are low, and negative values occur. The compounds are a random part of those screened. Two or more numbers in one place are separate tests of the same structure; such repeats can differ widely.

With CC(Cc1cnccn1)NC(=O)c1cccc(CC2CCNCC2)c1 (configuration not stated) the screen gave A: -49.97%; B: -13.2% and 3.223%.
With Clc1cccc(C(CNCc2ccccn2)N2CCOCC2)c1 (configuration not stated) the screen gave A: -45.73%; B: -55.05%.
With O=C1NCc2ccccc2CC12CCN(Cc1ccccc1Cl)CC2 the screen gave A: -2.424%; B: -0.81%.
With O[C@H]1COCCN(Cc2cccc3c2OCO3)C1 the screen gave A: 5.857% and -1.888%; B: -12.62%.
With Cc1ccc(N2CCC(C(=O)NC3CCc4nccn4C3)CC2)nc1 (configuration not stated) the screen gave A: -12.48%; B: -28.03%.
With CC(C)(C)n1ncc2c(=O)[nH]c(N3CCC4(CCCCC4)C3)nc21 the screen gave A: 13%; B: 9.948%.
With CCS(=O)(=O)N1CCC(c2nnc(CN3CCCCCC3)n2C)CC1 the screen gave A: 25.26%; B: 81.93%.
With CCN1CC(C(=O)N2CCN(CCn3cccc3)CC2)CC1=O (configuration not stated) the screen gave A: -20.22%; B: -11.17%.
With CCCN(Cc1cnn(C)c1)S(=O)(=O)c1cccc(F)c1C#N the screen gave A: 3.844%; B: -3.715%.
With O=C(COc1ccccc1)NCC1CC1 the screen gave A: 33.21%; B: 28.24%.
With Cc1nsc(N2CCN(C(=O)Nc3ccc4[nH]ccc4c3)CC2)n1 the screen gave A: -4.58%; B: -12.58%.
With COc1cc(CNC(C)c2ccc(F)c(F)c2)cc2c1OCCO2.O=C(O)C(=O)O (configuration not stated) the screen gave A: 6.483% and 11.35%; B: 20.24%.
With Cc1cnn(CC2CCCN2C(=O)CCc2c(C)nc(C)[nH]c2=O)c1 (configuration not stated) the screen gave A: 30.11%; B: -2.272%.
With CNc1ncccc1CN1CCN(c2cc(NC3CC3)nc(N)n2)CC1 the screen gave A: 0.627%; B: -0.6889%.
With COc1ccccc1CCN(C)Cc1nc(N)nc(N(C)C)n1 the screen gave A: 15%; B: -3.506%.
With COc1ccc(-c2cc3cccn(CC(=O)N4CCOCC4)c-3n2)cc1 the screen gave A: -27.88%; B: -16.91%.
With Cc1cn2nc(N3CCCC3Cn3cncn3)sc2n1 (configuration not stated) the screen gave A: 11.72%; B: -7.05%.
With Cn1ccc(CNC(=O)Nc2ccc(S(=O)(=O)C(F)F)cc2)c1 the screen gave A: 42.26%; B: 11.84%.
With C[C@@H]1CCC[C@H](C)N1CC(=O)N1CCc2[nH]c(-c3ccccc3)nc2C1 the screen gave A: -10.93%; B: 9.771%.
With COCCc1noc(CN2CCCC2c2c(C)nn(C)c2C)n1 (configuration not stated) the screen gave A: -4.809%; B: 1.735%.
With [H][C@@]12C[C@@H](OC)C[C@]1([H])CN(C(=O)c1nn(CCC)cc1Cl)C2 the screen gave A: -15.42%; B: -5.741% and -5.112%.
With O=C(O)C(F)(F)F.O=C(O)C(F)(F)F.[H][C@@]12CCCO[C@]1([H])[C@H](N(C)Cc1ccco1)CN(CC1CCOCC1)C2 the screen gave A: -18.34%; B: -11.88% and -16.42%.
With CCn1cc(S(=O)(=O)Nc2nc3c(s2)CCCC3)cn1 the screen gave A: -10.44%; B: -4.304%.
With NC(=O)CSCC(=O)NC1(c2cccc(Cl)c2)CC1 the screen gave A: -2.255% and 1.583%; B: 9.305%.
With CCCNC(c1cccnc1)c1ccc(F)cc1F (configuration not stated) the screen gave A: -17.62%; B: 6.089%.
With [H][C@]12C[C@@H](Cn3cncn3)N(c3nccs3)[C@@]1([H])CCN(C)C2 the screen gave A: 1.165% and -1.771%; B: 20%.
With CS(=O)(=O)N[C@@H]1CCO[C@]2(CCN(C(=O)C3=CCCC3)C2)C1 the screen gave A: 2.855%; B: -16.16%.
With CC(C)CN(Cc1ccc(O)c(C(=O)O)c1)Cc1ccccn1 the screen gave A: 4.75%; B: 4.688%.
With Cc1cccc(CN2CCN(C(=O)c3cc(Cl)c[nH]c3=O)CC2)c1 the screen gave A: 26.98%; B: 9.224%.
With NC(=O)C1(CCCc2ccccn2)CCCN(Cc2ncc[nH]2)C1 (configuration not stated) the screen gave A: -9.535%; B: -6.575%.
With COCC1CN(C(=O)N2CCCC2)Cc2cnn(CC3CCCC3)c21 (configuration not stated) the screen gave A: 2.001% and 22.09%; B: -4.685% and -0.3139%.
With Cn1ccc(C(=O)N2CCC(Cc3cccc4cccnc34)C2)n1 (configuration not stated) the screen gave A: 22.29%; B: 9.246%.
With COc1ccc(C2CC(=O)Nc3c2cnn3C)cc1 (configuration not stated) the screen gave A: -22.74%; B: -27.48%.
With Cc1nn(C)c(C)c1NC(=O)CN1CCc2c(nc(C3CC3)n2C)C1 the screen gave A: -12.47%; B: 32.58%.
With CCc1cnc(CNC(=O)NC2CC(C)(C)OC2(C)C)s1 (configuration not stated) the screen gave A: -12.93%; B: -9.77%.
With Cc1ncc(COc2cccc3c2NC(=O)CO3)s1 the screen gave A: -10.28% and 1.752%; B: -12.62%.
With Cc1noc2ncc(C(=O)NCC3CCS(=O)(=O)C3)cc12 (configuration not stated) the screen gave A: -0.8615%; B: 4.988%.

Once more, the final 3:

CCc1cnc(CNC(=O)NC2CC(C)(C)OC2(C)C)s1 (configuration not stated) read A: -12.93%; B: -9.77%.
Cc1ncc(COc2cccc3c2NC(=O)CO3)s1 read A: -10.28% and 1.752%; B: -12.62%.
Cc1noc2ncc(C(=O)NCC3CCS(=O)(=O)C3)cc12 (configuration not stated) read A: -0.8615%; B: 4.988%.